# Reference: article PMC3245282
# Amino acid sequences for entries named in this document (tags omitted).
# UniProt P02994: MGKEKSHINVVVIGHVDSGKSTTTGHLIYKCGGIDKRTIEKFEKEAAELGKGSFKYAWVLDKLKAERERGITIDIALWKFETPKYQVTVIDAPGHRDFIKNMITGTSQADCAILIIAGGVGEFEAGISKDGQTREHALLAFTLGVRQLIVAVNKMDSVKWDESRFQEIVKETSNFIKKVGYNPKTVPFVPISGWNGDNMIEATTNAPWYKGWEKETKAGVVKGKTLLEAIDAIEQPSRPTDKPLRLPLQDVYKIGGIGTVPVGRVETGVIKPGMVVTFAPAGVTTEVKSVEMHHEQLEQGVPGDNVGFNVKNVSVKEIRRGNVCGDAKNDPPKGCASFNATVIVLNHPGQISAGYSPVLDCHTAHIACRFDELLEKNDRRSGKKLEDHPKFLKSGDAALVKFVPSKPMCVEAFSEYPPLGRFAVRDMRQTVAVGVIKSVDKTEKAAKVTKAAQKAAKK
# These are yes or no findings as the source states them, for the method shown. In cells and extracts the contact can be indirect. Some results given as binding are weak or reduced against the parent protein; the word gives no strength. Where a sequence is shown, tags or fusion partners need not be part of it.
# Biological target: T1, His-tagged yeast eEF1Bα (guanine nucleotide exchange factor of eEF1A) (yeast) (UniProt P32471)
# T1 sequence: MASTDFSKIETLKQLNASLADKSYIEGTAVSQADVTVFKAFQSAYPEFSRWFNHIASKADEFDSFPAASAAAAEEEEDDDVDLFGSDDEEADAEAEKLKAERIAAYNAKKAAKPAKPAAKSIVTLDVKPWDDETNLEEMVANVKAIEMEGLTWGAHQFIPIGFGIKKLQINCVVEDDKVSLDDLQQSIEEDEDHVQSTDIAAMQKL
# Test: pull-down; only the target purified
substance,measurement,value
"yeast eukaryotic elongation factor 1A (eEF1A), native (from UniProt P02994 1-458)",binding,binds
